In all, about 220,000 compounds went through this assay and about 2,400 (1.1%) were called active. The shares of active, inactive and inconclusive entries below differ from those in the screen. Calls follow the shape of the dose curve; as a rule, active = well fitted inhibition curve with a large enough effect; inconclusive = small, poorly fitted or top-dose-only effect, or effect the other way; inactive = no such curve, though single readings can be large or run the other way. A potency beside an inconclusive call is a rough fit, not a confirmed value.
Experiment: qHTS Multiplex Assay to Identify Dual Action Probes in a Cell Model of Huntington: Aggregate Formation (GFP); also: nearly all actives have a fitted effect of over 60% in size
Conditions: PC12 HttQ103-GFP aggregates, Acumen cytometry, 40 h; activity change, negative = inhibition: at 46.1 µM (top of the series) unless noted
How it was run: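 Compounds (qHTS titration) were added to PC12 cells expressing an ecdysone-driven HTT exon 1 Q103–GFP fusion after induction with 100 nM tebufenozide. Aggregate formation was measured as GFP objects in cell lysates.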
% is scaled to controls: 0 for no effect and ±100 for the full control effect; potency is read from the fitted curve at half-maximal effect.

Compound | activity change, negative = inhibition | Potency
CCCCn1c(=O)nc2n(-c3ccc(C)cc3)c3ccccc3cc-2c1=O | inactive: -7.76% | –
CC(=O)Nc1ccc(C2=NNC(=NCC3CCCO3)SC2)cc1 (stereo unspecified) | inactive: -12% | –
NNC(=O)c1cccc(COc2ccc(Br)cc2)c1 | – | inconclusive: 35.5 µM [inhibitor, single point]
CN1CCN(Cc2nc3ccccc3c(=O)n2Cc2nc(-c3ccc([N+](=O)[O-])cc3)cs2)CC1 | – | inconclusive: 11.2 µM [activator, single point]
COc1cc(-c2nnc(-c3cccnc3)o2)cc(OC)c1OC | – | inconclusive: 5.01 µM [activator, single point]
COc1ccc(CCN2C(=O)CC(C(N)=O)SC2=Nc2ccccc2)cc1OC (stereo unspecified) | inactive: 15.1% | –
CCCCCCn1c(SCC(=O)OC)nc2c1c(=O)[nH]c(=O)n2C | inactive: 9.3% | –
Cc1ccc(CS(=O)(=O)c2ccc(C(=O)N3CCN(c4ccccn4)CC3)cc2[N+](=O)[O-])cc1 | – | inconclusive: 12.6 µM [inhibitor, single point]
Cc1cc(C)n(CC(=O)N/N=C/c2ccc([N+](=O)[O-])s2)n1 | – | inconclusive: 22.4 µM [inhibitor, single point]
CCCn1c(SCc2cc(=O)[nH]c3ccccc23)nc2c1c(=O)n(C)c(=O)n2C | – | inconclusive: 5.62 µM [activator, single point]
Cc1cc(C)nc(NS(=O)(=O)c2ccc(NC(=O)c3cc(-c4ccccc4)nc4ccccc34)cc2)n1 | – | inconclusive: 2.51 µM [activator, partial curve]
O=C1c2cccc3c(N4CCCCC4)ccc(c23)C(=O)N1CCO | inactive: -16.7% | –
Cc1cc(C)n(-c2nc(N(c3ccccc3)c3ccccc3)nc(-n3nc(C)cc3C)n2)n1 | inactive: -26.5% | –
Cc1cc(C)nc(N/N=C2/CCCC/C2=C\c2ccccc2)n1 | – | active: 4.47 µM
CC(=O)c1ccc2noc(-c3cccc(C)c3)c2c1 | – | inconclusive: 35.5 µM [inhibitor, single point]
CC(O)CNc1nc2c(c(=O)n(C)c(=O)n2C)n1C/C=C/c1ccccc1 (stereo unspecified) | – | inconclusive: 5.62 µM [inhibitor, single point]
O=C(CN1CCOCC1)NCc1ccccc1 | – | active: 0.316 µM
NC(N)=NS(=O)(=O)c1ccc(NC(=S)NC(=O)c2ccccc2)cc1 | inactive: 0.453% [at 9.22 µM] | –
Cc1ccc2cc(C)c(N3CCN(c4ccccn4)CC3)nc2c1 | – | inconclusive: 35.5 µM [inhibitor, single point]
O=C(c1ccc([N+](=O)[O-])cc1)N(Cc1ccc(Cl)cc1)N1C(=O)CCCC1=O | – | inconclusive: 0.355 µM [activator, full curve, poor fit]
Cc1nn(-c2ccccc2)c2[nH]c(C(F)(F)F)cc(=O)c12 | – | inconclusive: 35.5 µM [inhibitor, single point]
Cc1ccccc1Cn1nc(C)c(NC(=O)c2sc3ccccc3c2Cl)c1C | – | inconclusive: 15.8 µM [inhibitor, single point]
O=C(c1ccncc1)N1N=C(C2CCCCC2)CC1(O)C(F)(F)F (stereo unspecified) | – | inconclusive: 14.1 µM [inhibitor, single point]

Laid out differently: 13 of the compounds above

| Compound | activity change, negative = inhibition | Potency |
| --- | --- | --- |
| CC(=O)Nc1ccc(C2=NNC(=NCC3CCCO3)SC2)cc1 (stereo unspecified) | inactive: -12% | – |
| CN1CCN(Cc2nc3ccccc3c(=O)n2Cc2nc(-c3ccc([N+](=O)[O-])cc3)cs2)CC1 | – | inconclusive: 11.2 µM [activator, single point] |
| COc1cc(-c2nnc(-c3cccnc3)o2)cc(OC)c1OC | – | inconclusive: 5.01 µM [activator, single point] |
| CCCCCCn1c(SCC(=O)OC)nc2c1c(=O)[nH]c(=O)n2C | inactive: 9.3% | – |
| Cc1ccc(CS(=O)(=O)c2ccc(C(=O)N3CCN(c4ccccn4)CC3)cc2[N+](=O)[O-])cc1 | – | inconclusive: 12.6 µM [inhibitor, single point] |
| CCCn1c(SCc2cc(=O)[nH]c3ccccc23)nc2c1c(=O)n(C)c(=O)n2C | – | inconclusive: 5.62 µM [activator, single point] |
| Cc1cc(C)n(-c2nc(N(c3ccccc3)c3ccccc3)nc(-n3nc(C)cc3C)n2)n1 | inactive: -26.5% | – |
| Cc1cc(C)nc(N/N=C2/CCCC/C2=C\c2ccccc2)n1 | – | active: 4.47 µM |
| O=C(CN1CCOCC1)NCc1ccccc1 | – | active: 0.316 µM |
| NC(N)=NS(=O)(=O)c1ccc(NC(=S)NC(=O)c2ccccc2)cc1 | inactive: 0.453% [at 9.22 µM] | – |
| Cc1ccc2cc(C)c(N3CCN(c4ccccn4)CC3)nc2c1 | – | inconclusive: 35.5 µM [inhibitor, single point] |
| O=C(c1ccc([N+](=O)[O-])cc1)N(Cc1ccc(Cl)cc1)N1C(=O)CCCC1=O | – | inconclusive: 0.355 µM [activator, full curve, poor fit] |
| Cc1ccccc1Cn1nc(C)c(NC(=O)c2sc3ccccc3c2Cl)c1C | – | inconclusive: 15.8 µM [inhibitor, single point] |

(listing goes on)

Compound | activity change, negative = inhibition | Potency
O=C1NC(=O)/C(=C\c2ccc(Sc3ccc(Cl)cc3)o2)N1 | inactive: -5.21% | –
COc1ccc(-c2csc3nc(C)nc(N4CCN(c5ccc(C(C)=O)cc5)CC4)c23)cc1OC | – | inconclusive: 35.5 µM [inhibitor, single point]
O=C(c1cc2sccc2n1Cc1ccccc1)N1CCCc2ccccc21 | – | inconclusive: 28.2 µM [inhibitor, single point]
CCC(C(=O)NC(C)CCc1ccccc1)n1nc(C)n2c(cc3occc32)c1=O (stereo unspecified) | inactive: 10.8% | –
COC(=O)c1ccc2c(c1)C(C)(C)C(/C=C/c1ccc(OC)c(OC)c1OC)=[N+]2C | – | active: 11.2 µM
CN(C)CCCN(C(=O)CCOc1ccccc1)c1nc2ccc(F)cc2s1 | – | inconclusive: 0.447 µM [inhibitor, full curve, poor fit]
Cc1ccc(O)c(N=Cc2sc3ccccc3c2Cl)c1 | – | inconclusive: 5.62 µM [activator, single point]
COC(=O)c1ccc(-c2nc(O)c(C)s2)cc1 | inactive: 11.7% [at 9.22 µM] | –
O=C(N/N=C/c1coc2ccccc2c1=O)c1cc2ccccc2o1 | – | inconclusive: 15.8 µM [inhibitor, single point]
CCN(CC)c1ccc2cc(S(=O)(=O)c3ccc(Cl)cc3)c(=O)oc2c1 | inactive: 26.8% | –
CCn1c(NC(=O)c2cccs2)nc2ccccc21 | – | inconclusive: 11.2 µM [inhibitor, single point]
CC(C)CC(=O)n1sc(NC(=O)c2ccccc2)nc1=O | – | inconclusive: 10 µM [activator, partial curve]
Cc1cc(=O)oc2c(CN3CCN(C)CC3)c(O)c(Cl)cc12 | inactive: 7.22% | –
COC(=O)c1ccccc1NC(=O)c1noc2c1CCC2 | inactive: -11.1% | –
Oc1cccc(NC(=S)Nc2cccnc2)c1 | inactive: 4.85% | –
O=C(/C=C/c1cccc(F)c1)N(c1ccccn1)C1CCCCC1 | – | inconclusive: 5.01 µM [inhibitor, single point]
Cc1cccc(OCC(=O)Nc2ccc(N3CCN(C(=O)c4ccco4)CC3)cc2)c1 | – | inconclusive: 11.2 µM [inhibitor, single point]
COc1ccc(S(=O)(=O)NCCc2ccccc2)cc1 | inactive: -10.9% | –
COc1ccccc1N/N=C/c1ccc2c(c1)OCO2 | – | inconclusive: 35.5 µM [activator, single point]
COC(=O)[C@@]1(Cc2ccc(F)cc2)[C@H]2c3cc(C(=O)N(C)C)n(CCc4ccc(OC)c(Br)c4)c3C[C@H]2CN1C(=O)c1ccccc1 | – | inconclusive: 31.6 µM [inhibitor, single point]
Fc1ccccc1NC(=S)N(CCN1CCCCCC1)Cc1cccs1 | – | inconclusive: 35.5 µM [inhibitor, single point]
Cc1c(C(=O)N2CCC(C)CC2)sc2ncnc(N(C)c3ccccc3)c12 | – | active: 20 µM
Cc1cc(-c2nn(-c3ccccc3F)cc2CN(C)CC(O)CO)c(C)s1 (stereo unspecified) | inactive: 9.67% [at 9.22 µM] | –

Source: PubChem BioAssay AID1688 (National Center for Advancing Translational Sciences (NCATS), 2009)
